Source: PMC8452302 (CPT: Pharmacometrics & Systems Pharmacology, 2021)

Key:
[1] = biological target: T1, BCRP (Homo sapiens, UniProt Q9UNQ0); test: In vitro BCRP inhibition, HEK293-BCRP membrane vesicles, rosuvastatin probe; format: biochemical
T1 sequence (Q9UNQ0 1-655): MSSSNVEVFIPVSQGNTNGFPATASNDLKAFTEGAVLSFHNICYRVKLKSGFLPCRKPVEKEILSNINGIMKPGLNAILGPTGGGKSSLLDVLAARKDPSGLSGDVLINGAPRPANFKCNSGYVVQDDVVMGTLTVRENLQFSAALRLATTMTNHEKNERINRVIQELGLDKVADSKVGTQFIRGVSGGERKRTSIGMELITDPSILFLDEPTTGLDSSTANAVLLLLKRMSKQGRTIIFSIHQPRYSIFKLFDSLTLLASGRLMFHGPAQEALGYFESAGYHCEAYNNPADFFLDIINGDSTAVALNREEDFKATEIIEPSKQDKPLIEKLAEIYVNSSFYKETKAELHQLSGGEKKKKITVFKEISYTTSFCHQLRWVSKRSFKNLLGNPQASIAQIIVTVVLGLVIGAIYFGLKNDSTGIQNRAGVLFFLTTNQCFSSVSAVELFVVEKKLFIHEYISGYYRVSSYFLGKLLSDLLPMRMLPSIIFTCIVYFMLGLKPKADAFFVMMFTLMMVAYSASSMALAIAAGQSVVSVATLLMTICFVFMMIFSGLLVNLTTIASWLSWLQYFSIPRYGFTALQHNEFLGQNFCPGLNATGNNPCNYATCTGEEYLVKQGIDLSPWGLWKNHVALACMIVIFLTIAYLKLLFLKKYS

[2] = biological target: T2, OATP1B3 (Homo sapiens, UniProt Q9NPD5); test: Static DDI risk assessment, OATP1B3 R-value; conditions: 1 + Iin,max,u/IC50; metabolite/combination additive; Imax,u for IV
T2 sequence (Q9NPD5 1-702): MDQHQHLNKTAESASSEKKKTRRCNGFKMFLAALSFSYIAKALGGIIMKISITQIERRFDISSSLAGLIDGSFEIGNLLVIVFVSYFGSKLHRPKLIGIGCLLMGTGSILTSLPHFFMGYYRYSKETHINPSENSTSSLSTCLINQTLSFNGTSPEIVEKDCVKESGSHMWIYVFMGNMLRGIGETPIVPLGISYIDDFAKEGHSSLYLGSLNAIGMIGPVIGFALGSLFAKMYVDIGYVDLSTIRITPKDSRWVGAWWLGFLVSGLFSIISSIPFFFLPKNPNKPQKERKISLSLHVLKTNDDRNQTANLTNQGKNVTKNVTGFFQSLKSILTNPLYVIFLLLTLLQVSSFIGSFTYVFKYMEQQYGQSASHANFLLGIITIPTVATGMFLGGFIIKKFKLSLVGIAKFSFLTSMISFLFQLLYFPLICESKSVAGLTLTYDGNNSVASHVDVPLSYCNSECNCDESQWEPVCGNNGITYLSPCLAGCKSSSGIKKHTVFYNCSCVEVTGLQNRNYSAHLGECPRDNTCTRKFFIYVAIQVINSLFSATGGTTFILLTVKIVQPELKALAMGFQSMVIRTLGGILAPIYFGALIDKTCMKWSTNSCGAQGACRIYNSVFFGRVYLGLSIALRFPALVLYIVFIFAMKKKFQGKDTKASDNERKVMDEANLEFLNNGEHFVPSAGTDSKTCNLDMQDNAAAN

[3] = biological target: T3, OATP1B1 (Homo sapiens, UniProt Q9Y6L6); test: Static DDI risk assessment, OATP1B1 R-value; conditions: 1 + Iin,max,u/IC50; metabolite/combination additive; Imax,u for IV
T3 sequence (Q9Y6L6 1-691): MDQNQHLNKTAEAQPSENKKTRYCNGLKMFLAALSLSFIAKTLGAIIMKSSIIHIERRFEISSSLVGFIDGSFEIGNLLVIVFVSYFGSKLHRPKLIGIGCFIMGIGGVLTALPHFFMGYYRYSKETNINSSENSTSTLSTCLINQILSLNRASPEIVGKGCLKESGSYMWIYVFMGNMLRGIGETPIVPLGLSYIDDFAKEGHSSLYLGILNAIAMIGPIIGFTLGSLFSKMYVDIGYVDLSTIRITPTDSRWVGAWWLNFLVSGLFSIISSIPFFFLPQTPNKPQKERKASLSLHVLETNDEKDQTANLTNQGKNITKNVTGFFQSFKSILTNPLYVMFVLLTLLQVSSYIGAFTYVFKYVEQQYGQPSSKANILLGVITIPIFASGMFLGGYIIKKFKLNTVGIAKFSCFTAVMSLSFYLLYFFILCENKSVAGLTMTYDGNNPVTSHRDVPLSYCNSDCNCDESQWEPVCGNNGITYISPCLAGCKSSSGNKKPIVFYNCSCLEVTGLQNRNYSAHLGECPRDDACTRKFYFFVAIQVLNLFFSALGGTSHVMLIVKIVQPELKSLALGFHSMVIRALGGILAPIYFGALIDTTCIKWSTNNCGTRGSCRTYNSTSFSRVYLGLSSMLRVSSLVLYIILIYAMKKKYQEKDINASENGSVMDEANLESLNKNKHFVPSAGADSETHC

SMILES: CC(C)c1c(C(=O)Nc2ccccc2)c(-c2ccccc2)c(-c2ccc(F)cc2)n1CC[C@@H](O)C[C@@H](O)CC(=O)O [Atorvastatin]
- IC50 [1]: 8.6 µM
- 1B3 R-Value [2]: 1.00
- 1B1 R-Value [3]: 1.01
